According to PubChem BioAssay AID504444 (National Center for Advancing Translational Sciences (NCATS), 2011):
About 7,500 (2.1%) of roughly 360,000 compounds were called active. Inconclusive results, whose numbers are uncertain, are shown with a selection of clear calls. The call rests on the fitted dose curve; in most records, active means well fitted inhibition curve with a large enough effect; inconclusive means small, poorly fitted or top-dose-only effect, or effect the other way; inactive means flat fitted curve, though single readings scatter. Potencies of inconclusive entries are doubtful fits and often do not repeat.
On the % scale 0 is the no-effect control and ±100 the full control effect; potency means the concentration at half of the fitted maximal effect.

Assay: Nrf2 qHTS screen for inhibitors; further: nearly all actives have a fitted effect of over 60% in size
Conditions: A549 ARE-Fluc reporter, luciferase luminescence, 18-24 h; activity change, negative = inhibition: at 46 µM (top of the series)
Outline: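 In this cell-based qHTS, ARE-driven firefly luciferase in A549 cells reports Nrf2 activity; the luminescent signal after BugLite lysis is the measured value, with a prior CellTiter-Fluor read for cell health.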
With `C=CC[C@H](CC(=O)N(CCO)Cc1ccccc1)C(=O)N[C@@H](C)COC(=O)[C@H](CC=C)CC(=O)OC(C)(C)C` the “activity change, negative = inhibition” value was inactive: 7.16%.
With `CC(C)NC(=O)c1cc(-c2ccc(Br)cc2)on1` the Potency was inconclusive: 2.91 µM [activator, partial curve].
For `O=C(OCC(=O)N1CCOCC1)c1cc(-c2ccccc2)nc2ccccc12`, the “activity change, negative = inhibition” value was inactive: 18.7%.
For `O=C1c2cccc3cccc(c23)C(=O)N1CC1CCN(CC(O)COc2ccc3ccccc3c2)CC1` (stereo unspecified), the Potency was inconclusive: 18.4 µM [falling, single point].
For `CN(C)c1ccc(/C=C/c2ccc3ccccc3n2)cc1`, the Potency was inconclusive: 20.6 µM [falling, single point].
In the case of `CCOC(=O)C1CCCN(S(=O)(=O)c2ccc3c(c2)CCN3C(=O)CC)C1` (stereo unspecified), the Potency is reported as active: 9.2 µM.
In the case of `Cc1ccccc1N1CC(C(=O)Nc2ccc(S(=O)(=O)N3CCCCC3)cc2)CC1=O` (stereo unspecified), the Potency is reported as inconclusive: 25.9 µM [falling, single point].
With `Nc1cc(S(=O)(=O)Nc2ccccc2Cl)ccc1N1CCOCC1` the Potency was inconclusive: 29.1 µM [falling, single point].
In the case of `O=C(O)CC(=O)NC12CC3CC(CC(C3)C1)C2`, the Potency is reported as inconclusive: 0.013 µM [falling, full curve, poor fit].
For `COc1ccc(S(=O)(=O)N2CCN(CCOc3ccc(Br)cc3)CC2)cc1OC`, the Potency was active: 5.8 µM.
In the case of `O=C1ON=C(c2ccccc2)/C1=C/c1ccc(OS(=O)(=O)c2ccccc2)cc1`, the “activity change, negative = inhibition” value is reported as inactive: 6.79%.
In the case of `COc1ccccc1OCCCOc1ccc(C)cc1Br`, the Potency is reported as inconclusive: 20.6 µM [activator, partial curve].
With `COc1ccc(S(=O)(=O)N2CCC(n3cnc4cc(C(F)(F)F)ccc43)CC2)cc1` the Potency was inconclusive: 23.1 µM [falling, partial curve].
In the case of `CC(C)(C)OC(=O)CNC(=O)c1[nH]cnc1C(=O)N[C@@H](CCCCN)C(=O)OC(C)(C)C`, the Potency is reported as inconclusive: 14.6 µM [activator, partial curve].
In the case of `CC1(C)Cc2ccccc2C(/C(=N\Nc2cccc(Cl)c2)C(N)=O)=N1`, the Potency is reported as inconclusive: 16.4 µM [falling, single point].
With `Nc1c(C(=O)NCCN2CCOCC2)c2nc3ccccc3nc2n1-c1ccc2c(c1)OCO2` the “activity change, negative = inhibition” value was inactive: -23.5%.
In the case of `CC(C)Oc1ccc(CC(=O)NNC(=S)Nc2ccccc2)cc1`, the Potency is reported as inconclusive: 20.6 µM [falling, partial curve].
With `COc1ccc(CC(=O)Nc2ccc(OC(C)=O)cc2C(=O)O)cc1` the “activity change, negative = inhibition” value was inactive: 11.4%.
For `COc1ccc(OC)c(NC(=O)CSc2nc3n[nH]c(C)c3c(=N)n2-c2cccc(Cl)c2C)c1`, the Potency was active: 16.4 µM.
In the case of `Cc1c(N2C(=O)/C(=C3\C(=O)N(CC(=O)O)c4ccccc43)SC2=S)c(=O)n(-c2ccccc2)n1C`, the Potency is reported as inconclusive: 29.1 µM [falling, single point].
For `COc1ccc(CCNC(=O)c2cc3sc(Cl)cc3n2C)cc1OC`, the Potency was active: 25.9 µM.
With `C/C(=N\NC(=O)CCc1c[nH]c2ccccc12)c1ccc([N+](=O)[O-])cc1` the Potency was inconclusive: 29.1 µM [falling, single point].
For `O=C(/C=C/c1ccc(Cl)cc1)NC1CC2CCC1C2` (stereo unspecified), the Potency was inconclusive: 5.8 µM [activator, partial curve].
With `CCCCCN(C(=O)COC(=O)c1ccc(C)cc1)c1c(N)n(CCCC)c(=O)[nH]c1=O` the Potency was inconclusive: 5.17 µM [falling, partial curve, poor fit].
In the case of `COc1cc(/C=C/C(=O)OCC(=O)N2CCOCC2)ccc1OCC#N`, the “activity change, negative = inhibition” value is reported as inactive: 9.99%.
For `Cc1cc[n+](-c2ccccc2)c2ccccc12`, the Potency was inconclusive: 1.16 µM [falling, full curve].
For `CC1(C)NC(C)(C)/C(=C\c2cccs2)C(=O)C1=O`, the Potency was inconclusive: 4.11 µM [falling, partial curve, poor fit].
In the case of `CC1=NOC(=O)/C1=C\c1ccc(-c2ccc(Br)cc2)o1`, the Potency is reported as inconclusive: 23.1 µM [activator, single point].
With `CC(C(=O)NCc1cccnc1)c1ccc([N+](=O)[O-])cc1` (stereo unspecified) the Potency was inconclusive: 32.6 µM [activator, partial curve, poor fit].
In the case of `CC1(CC(=O)N/N=C/c2ccc(OCc3ccc(Cl)cc3Cl)cc2)OCCCO1`, the Potency is reported as inconclusive: 6.51 µM [activator, partial curve, poor fit].
With `O=S1(=O)C=C(Sc2nc3ccccc3s2)c2ccccc21` the Potency was active: 18.4 µM.
With `CCN(CC)c1ccc(NC(=O)c2cc3c(OC)cccc3[nH]2)cc1` the Potency was inconclusive: 23.1 µM [falling, single point].
With `Cc1ccc(C)c(NC(=O)Cn2nnc(C(=O)NCCc3ccccc3)c2N)c1` the Potency was inconclusive: 1.84 µM [falling, partial curve, poor fit].
For `COc1cccc(C(=O)OC(C)C(=O)Nc2ccc3c(c2)OCO3)c1` (stereo unspecified), the Potency was inconclusive: 25.9 µM [falling, single point].
For `CCOc1ncccc1C(=O)NCCc1ccc(S(N)(=O)=O)cc1`, the Potency was inconclusive: 3.66 µM [falling, partial curve].
For `Cc1cc(C)cc(NC(=O)C(=O)NCCCN2CCOCC2)c1`, the Potency was inconclusive: 29.1 µM [activator, partial curve, poor fit].
In the case of `COC(=O)Cc1c(C)c2ccc(OCC(=O)N3CCC(C)CC3)c(C)c2oc1=O`, the Potency is reported as inconclusive: 20.6 µM [falling, single point].
In the case of `N#C/C(=C\c1cc([N+](=O)[O-])c(N2CCOCC2)cc1N1CCOCC1)c1nc2ccccc2[nH]1`, the Potency is reported as inconclusive: 16.4 µM [falling, single point].
In the case of `Cc1ccccc1-n1ccnc1SCC(=O)NCc1ccco1`, the Potency is reported as inconclusive: 6.51 µM [falling, partial curve, poor fit].
For `O=C(Nc1cc(F)ccc1F)c1ccc(-n2cncn2)c([N+](=O)[O-])c1`, the “activity change, negative = inhibition” value was inactive: -13.8%.
For `O=C(C(Cl)Cl)N1CC2CCC(CC2)C1`, the Potency was inconclusive: 29.1 µM [activator, single point].
In the case of `N#Cc1c2nc3ccccc3nc2n2cc(NC(=O)c3ccc(F)cc3)ccc12`, the Potency is reported as inconclusive: 6.51 µM [falling, single point].
With `O=C(Nc1nc2ccc(S(=O)(=O)N3CCCC3)cc2s1)c1ccc(F)cc1` the Potency was inconclusive: 16.4 µM [falling, partial curve].
With `CC(=O)NNC(=O)c1csc(-c2csc(C)n2)n1` the “activity change, negative = inhibition” value was inactive: -5.46%.
With `CC(C)(C)c1ccc(/C=C/C(=O)Nc2nncs2)cc1` the Potency was inconclusive: 1.03 µM [activator, partial curve].
With `Cc1ccc(OCCNS(=O)(=O)c2ccc(N3CCCC3=O)cc2)cc1C` the Potency was inconclusive: 16.4 µM [falling, single point].
For `O=C(Nc1ccc(-c2cn3c(n2)SCC3)cc1)c1ccco1`, the Potency was inconclusive: 7.31 µM [activator, partial curve].
With `COc1ccc(-c2cn3cccnc3n2)cc1NC(=O)CC(C)C` the “activity change, negative = inhibition” value was inactive: -11.6%.
With `Cc1cc(C(=O)Cn2nnc(-c3ccc(Cl)cc3)n2)c(C)n1CC1CCCO1` (stereo unspecified) the Potency was active: 13 µM.
For `Cc1ccc(C)c(S(=O)(=O)Nc2ccc(C(=O)N3CCCCC3)cc2)c1`, the Potency was inconclusive: 7.31 µM [activator, partial curve, poor fit].
For `COC(=O)C1CCN(C(=O)c2ccc(Cl)c(S(=O)(=O)NCc3ccco3)c2)CC1`, the Potency was inconclusive: 14.6 µM [activator, partial curve, poor fit].
With `COCC1CCCCN1C(=O)c1ccc2nc(Cc3ccc(OC)c(OC)c3)oc2c1` (stereo unspecified) the Potency was inconclusive: 23.1 µM [falling, single point].
For `Cc1cc(NC(=O)c2ccc(C)o2)no1`, the Potency was inconclusive: 20.6 µM [activator, single point].
With `O=C(NCc1cccc(Cl)c1)c1ccc2c(c1)SC1=NS(=O)(=O)CCN12` the Potency was inconclusive: 23.1 µM [falling, partial curve, poor fit].
In the case of `CCO[C@@H]1OC(C(=O)NCc2nc3ccccc3[nH]2)=C[C@H](c2csc3ccccc23)[C@H]1CCCO`, the Potency is reported as inconclusive: 20.6 µM [falling, partial curve, poor fit].
In the case of `CCOc1ccc(-c2cc(CCCC(=O)NCc3ccc(C)cc3)no2)cc1`, the Potency is reported as inconclusive: 6.51 µM [falling, single point].
In the case of `CC(C)C(NC(=O)C1CCCCC1)C(=O)N1CCN(c2ccc(F)cc2)CC1` (stereo unspecified), the Potency is reported as inconclusive: 16.4 µM [falling, single point].
For `Cc1cc(C)cc(NC(=O)Cn2nnc(C(=O)NCc3ccccc3Cl)c2N)c1`, the Potency was inconclusive: 20.6 µM [falling, partial curve].
For `COc1ccc(CCNC(=O)c2cc3c(s2)-c2c(C)cccc2OC3)c(OC)c1`, the Potency was active: 20.6 µM.
In the case of `Cc1ccc2cc(CCNC(=O)c3cccs3)c(=O)[nH]c2c1`, the Potency is reported as inconclusive: 8.2 µM [activator, partial curve].
For `COc1ccc(/C=C/C(=O)c2ccc(NC3=NCCCS3)cc2)cc1OC`, the “activity change, negative = inhibition” value was inactive: -9.32%.
In the case of `COc1ccc(C2/C=C\CC(NS(=O)(=O)c3ccc(C)cc3)CC(=O)N2Cc2ccccc2F)cc1` (stereo unspecified), the Potency is reported as inconclusive: 25.9 µM [falling, partial curve, poor fit].
In the case of `Cc1cccc(N2CC(c3nc4ccccc4n3CCC3CCCCC3)CC2=O)c1` (stereo unspecified), the “activity change, negative = inhibition” value is reported as inactive: -18%.
For `C=CCC1(CC=C)CCCN1C(=O)C1CCC(=O)N(CCc2ccc(Cl)cc2)C1` (stereo unspecified), the Potency was inconclusive: 2.59 µM [activator, full curve].
For `N/C(=N\OC(=O)Cc1ccccc1)c1ccccn1`, the Potency was inconclusive: 16.4 µM [activator, single point].
With `COc1cccc2nc3c(C(=O)NCCN(C)C)cccc3cc12` the Potency was inconclusive: 3.26 µM [falling, full curve].
